PubChem BioAssay AID1671195 – Yale University, 2021
The whole screen tested about 22,000 reagents; shown is a random part of them. About 1,510 of them (6.9%) count as active. 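Active includes knockdowns raising or lowering LDL uptake; positive z-scores mean more uptake, negative mean less.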

- Assay: 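Genes whose knockdown alters LDL uptake in liver cancer cells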 (primary screen)
- Cells: human Huh7 hepatoma cells
- Reagent: siRNA pool against human genes, 18 nM
- Time to read-out: about 2 to 2.5 days of knockdown, then 8 h LDL uptake
- Treatment: DiI-labelled LDL at 30 µg/ml for 8 h, in lipoprotein-deficient serum medium
- Measurement: 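Fluorescent LDL signal imaged in cells, scaled to the plate median, robust z-score for each replicate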
- Scale: robust z-score: higher = more LDL uptake after knockdown
- Call rule: 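a gene counts as active if at least two replicate z-scores exceed ±2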

target | robust z-score, replicate 1 | robust z-score, replicate 2 | robust z-score, replicate 3 | Outcome
DIAPH1 (diaphanous related formin 1) | -0.607 | -0.0237 | -1.87 | inactive
LOC441460 (retired record) | -0.73 | -0.739 | -0.726 | inactive
TBCCD1 (TBCC domain containing 1) | 1.31 | -0.572 | -0.156 | inactive
TIMM8A (translocase of inner mitochondrial membrane 8A) | 0.775 | 0.706 | 1.23 | inactive
SUPT20H (SPT20 homolog, SAGA complex component) | -0.157 | 0.946 | 0.0366 | inactive
RFK (riboflavin kinase) | 1.07 | 0.0726 | 1.74 | inactive
ISM2 (isthmin 2) | -0.787 | -1.14 | -1.09 | inactive
NR4A2 (nuclear receptor subfamily 4 group A member 2) | -1.46 | -1.6 | -2.13 | inactive
LOC441832 (retired record) | -0.301 | -0.406 | -0.556 | inactive
ALMS1 (ALMS1 centrosome and basal body associated protein) | -0.263 | 0.791 | 0.621 | inactive
LOC391437 (retired record) | -0.258 | -0.68 | -0.643 | inactive
GSEC (G-quadruplex forming sequence containing lncRNA) | -0.701 | -0.676 | -0.849 | inactive
GAPVD1 (GTPase activating protein and VPS9 domains 1) | 0.394 | 0.103 | 1.62 | inactive
HES1 (hes family bHLH transcription factor 1) | -1.69 | -1.55 | -1.07 | inactive
SIGLEC17P (sialic acid binding Ig like lectin 17, pseudogene) | -1.44 | -1.46 | -1.52 | inactive
THYN1 (thymocyte nuclear protein 1) | 0.53 | -0.833 | 0.351 | inactive
LOC387720 (retired record) | -0.29 | -0.444 | -0.386 | inactive
PRODH (proline dehydrogenase 1) | -0.431 | 1.05 | 0.0958 | inactive
RPS27AP17 (RPS27A pseudogene 17) | -0.169 | 0.0808 | 0.686 | inactive
CKAP5 (cytoskeleton associated protein 5) | -0.659 | -1.36 | -0.552 | inactive
TTLL9 (tubulin tyrosine ligase like 9) | 0.328 | 1.48 | 0.601 | inactive
KDM5D (lysine demethylase 5D) | -0.263 | -0.237 | -0.318 | inactive
SENP7 (SUMO specific peptidase 7) | -1.47 | -0.802 | -1.32 | inactive
RUNX1T1 (RUNX1 partner transcriptional co-repressor 1) | 2.54 | 3.22 | 2.45 | active

As entered above.
LOC441460 (retired record), robust z-score, replicate 1 → -0.73
TTLL9 (tubulin tyrosine ligase like 9), Outcome → inactive

Further results follow.
target | robust z-score, replicate 1 | robust z-score, replicate 2 | robust z-score, replicate 3 | Outcome
PDZD8 (PDZ domain containing 8) | 0.674 | 1.04 | 0.0529 | inactive
DCST2 (DC-STAMP domain containing 2) | -1.08 | -0.315 | -1.22 | inactive
TXNDC17 (thioredoxin domain containing 17) | -0.368 | -0.897 | -0.818 | inactive
MPLKIP (M-phase specific PLK1 interacting protein) | 1.8 | 1.1 | 2.84 | inactive
SHQ1 (SHQ1, H/ACA ribonucleoprotein assembly factor) | -0.501 | 0.614 | -0.697 | inactive
FLAD1 (flavin adenine dinucleotide synthetase 1) | 1.12 | 0.242 | 1.61 | inactive
AP1M1 (adaptor related protein complex 1 subunit mu 1) | 0.912 | 1.77 | 1.54 | inactive
LOC441297 (retired record) | -0.356 | 0.154 | -0.016 | inactive
COPS9 (COP9 signalosome subunit 9) | 1.62 | 0.693 | 1.86 | inactive
ACOX3 (acyl-CoA oxidase 3, pristanoyl) | -0.778 | 0.152 | 0.65 | inactive
HSP90AA2P | -0.395 | -0.551 | -0.658 | inactive
CCHCR1 (coiled-coil alpha-helical rod protein 1) | -0.352 | -1.22 | -0.731 | inactive
GABRA2 (gamma-aminobutyric acid type A receptor subunit alpha2) | -0.575 | -0.83 | -0.822 | inactive
MARF1 (meiosis regulator and mRNA stability factor 1) | 1.81 | -0.152 | 0.376 | inactive
LOC389242 (retired record) | -1.11 | -1.53 | -1.45 | inactive
LMO7 (LIM domain 7) | -0.916 | -0.313 | -1.09 | inactive
GRTP1 (growth hormone regulated TBC protein 1) | 0.688 | 0.679 | 0.551 | inactive
LOC401703 (U2 small nuclear RNA auxiliary factor 1 like 4 pseudogene) | -0.000379 | 0.269 | 0.523 | inactive
DCX (doublecortin) | 1.82 | -0.0996 | 0.865 | inactive
TMEM259 (transmembrane protein 259) | -0.517 | -0.84 | 0.185 | inactive
SRCAP (Snf2 related CREBBP activator protein) | 1.53 | 1.56 | 1.18 | inactive
RARRES1 (retinoic acid receptor responder 1) | 0.607 | -0.0992 | -0.486 | inactive
